The values below come from publication PMC5263256.

By UniProt entry, the sequences of proteins in these tests, tags left out. Where a name states a change or a piece, a line headed by the entry shows the natural chain unless it says otherwise.
UniProt Q9CWS4: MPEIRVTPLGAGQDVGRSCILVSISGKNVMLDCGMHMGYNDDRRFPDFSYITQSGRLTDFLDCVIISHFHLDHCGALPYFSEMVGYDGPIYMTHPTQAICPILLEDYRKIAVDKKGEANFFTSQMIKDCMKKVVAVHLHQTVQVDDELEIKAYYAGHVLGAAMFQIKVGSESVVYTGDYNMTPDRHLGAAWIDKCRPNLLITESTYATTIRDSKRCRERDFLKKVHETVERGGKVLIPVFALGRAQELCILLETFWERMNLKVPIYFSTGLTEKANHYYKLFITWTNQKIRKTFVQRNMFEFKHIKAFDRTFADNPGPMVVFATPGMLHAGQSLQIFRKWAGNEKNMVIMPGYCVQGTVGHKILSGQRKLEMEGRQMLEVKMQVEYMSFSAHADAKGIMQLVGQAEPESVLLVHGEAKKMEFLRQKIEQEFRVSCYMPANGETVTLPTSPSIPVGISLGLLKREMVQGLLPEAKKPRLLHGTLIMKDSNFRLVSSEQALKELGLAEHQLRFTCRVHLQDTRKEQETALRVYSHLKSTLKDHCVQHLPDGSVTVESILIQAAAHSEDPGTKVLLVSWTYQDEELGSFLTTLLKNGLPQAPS
UniProt P17156: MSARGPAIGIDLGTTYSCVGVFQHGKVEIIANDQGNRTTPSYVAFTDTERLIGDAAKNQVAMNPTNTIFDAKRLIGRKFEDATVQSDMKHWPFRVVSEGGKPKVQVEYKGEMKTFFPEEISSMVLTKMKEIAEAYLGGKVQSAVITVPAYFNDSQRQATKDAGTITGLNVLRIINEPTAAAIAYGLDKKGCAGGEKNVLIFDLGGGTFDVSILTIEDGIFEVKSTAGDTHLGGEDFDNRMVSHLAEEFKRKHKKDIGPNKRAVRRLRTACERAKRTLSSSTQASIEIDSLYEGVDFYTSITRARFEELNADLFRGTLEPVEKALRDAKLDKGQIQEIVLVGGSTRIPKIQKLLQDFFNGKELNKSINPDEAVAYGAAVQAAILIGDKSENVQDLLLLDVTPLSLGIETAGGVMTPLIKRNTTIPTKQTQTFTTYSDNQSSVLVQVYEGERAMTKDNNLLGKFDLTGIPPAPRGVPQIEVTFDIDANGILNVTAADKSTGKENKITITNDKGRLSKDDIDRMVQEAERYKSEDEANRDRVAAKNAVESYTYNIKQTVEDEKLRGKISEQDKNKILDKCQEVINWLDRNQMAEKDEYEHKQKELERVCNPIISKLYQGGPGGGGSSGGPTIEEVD
UniProt Q6PCM2: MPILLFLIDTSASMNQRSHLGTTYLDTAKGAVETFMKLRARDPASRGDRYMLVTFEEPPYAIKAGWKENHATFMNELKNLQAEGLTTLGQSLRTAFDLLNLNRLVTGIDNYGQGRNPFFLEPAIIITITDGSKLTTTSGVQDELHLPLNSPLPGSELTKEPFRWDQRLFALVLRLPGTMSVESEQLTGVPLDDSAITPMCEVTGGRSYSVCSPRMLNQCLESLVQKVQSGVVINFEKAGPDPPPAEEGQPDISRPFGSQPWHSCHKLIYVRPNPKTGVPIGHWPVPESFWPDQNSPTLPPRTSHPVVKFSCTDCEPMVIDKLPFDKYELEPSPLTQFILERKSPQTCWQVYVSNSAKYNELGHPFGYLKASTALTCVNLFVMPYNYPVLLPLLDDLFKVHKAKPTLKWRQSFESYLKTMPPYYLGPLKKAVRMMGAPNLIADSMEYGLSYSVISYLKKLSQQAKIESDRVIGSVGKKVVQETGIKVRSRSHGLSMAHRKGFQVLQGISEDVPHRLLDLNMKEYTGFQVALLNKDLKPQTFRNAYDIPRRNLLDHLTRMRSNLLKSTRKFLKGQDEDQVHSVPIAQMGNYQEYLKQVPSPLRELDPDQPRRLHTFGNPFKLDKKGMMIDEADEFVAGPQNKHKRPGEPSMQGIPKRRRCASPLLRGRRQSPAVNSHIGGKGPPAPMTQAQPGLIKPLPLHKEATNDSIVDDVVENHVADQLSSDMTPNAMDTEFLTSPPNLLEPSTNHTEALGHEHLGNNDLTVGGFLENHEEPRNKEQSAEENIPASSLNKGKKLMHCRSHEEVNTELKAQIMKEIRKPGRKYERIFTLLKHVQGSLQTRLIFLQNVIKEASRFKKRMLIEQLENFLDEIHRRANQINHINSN
UniProt Q7TQK1: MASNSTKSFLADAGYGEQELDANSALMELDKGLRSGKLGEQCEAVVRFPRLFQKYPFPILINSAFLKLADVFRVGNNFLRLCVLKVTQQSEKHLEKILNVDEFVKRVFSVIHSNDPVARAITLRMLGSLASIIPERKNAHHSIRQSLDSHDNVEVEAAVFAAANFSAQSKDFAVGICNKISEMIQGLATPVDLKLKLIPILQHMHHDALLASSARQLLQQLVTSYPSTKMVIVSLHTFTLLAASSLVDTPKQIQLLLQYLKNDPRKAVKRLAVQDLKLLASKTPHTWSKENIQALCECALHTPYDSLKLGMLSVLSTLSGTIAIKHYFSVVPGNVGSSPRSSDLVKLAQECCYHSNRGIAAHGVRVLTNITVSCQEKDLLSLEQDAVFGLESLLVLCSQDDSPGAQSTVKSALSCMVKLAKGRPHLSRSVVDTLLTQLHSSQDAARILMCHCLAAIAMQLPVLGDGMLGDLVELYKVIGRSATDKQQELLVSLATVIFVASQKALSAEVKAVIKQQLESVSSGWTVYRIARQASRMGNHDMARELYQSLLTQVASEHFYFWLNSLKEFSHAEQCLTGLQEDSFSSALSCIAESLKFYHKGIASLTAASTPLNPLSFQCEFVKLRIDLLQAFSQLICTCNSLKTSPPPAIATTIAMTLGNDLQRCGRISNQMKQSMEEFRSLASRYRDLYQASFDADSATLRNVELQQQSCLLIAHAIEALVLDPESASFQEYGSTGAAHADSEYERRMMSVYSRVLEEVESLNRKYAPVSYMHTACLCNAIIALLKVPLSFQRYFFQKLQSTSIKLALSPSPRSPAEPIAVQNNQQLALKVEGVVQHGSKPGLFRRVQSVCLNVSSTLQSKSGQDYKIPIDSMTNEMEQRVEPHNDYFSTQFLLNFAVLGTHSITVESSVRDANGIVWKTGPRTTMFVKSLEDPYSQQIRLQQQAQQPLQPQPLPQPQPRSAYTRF
UniProt Q80V86: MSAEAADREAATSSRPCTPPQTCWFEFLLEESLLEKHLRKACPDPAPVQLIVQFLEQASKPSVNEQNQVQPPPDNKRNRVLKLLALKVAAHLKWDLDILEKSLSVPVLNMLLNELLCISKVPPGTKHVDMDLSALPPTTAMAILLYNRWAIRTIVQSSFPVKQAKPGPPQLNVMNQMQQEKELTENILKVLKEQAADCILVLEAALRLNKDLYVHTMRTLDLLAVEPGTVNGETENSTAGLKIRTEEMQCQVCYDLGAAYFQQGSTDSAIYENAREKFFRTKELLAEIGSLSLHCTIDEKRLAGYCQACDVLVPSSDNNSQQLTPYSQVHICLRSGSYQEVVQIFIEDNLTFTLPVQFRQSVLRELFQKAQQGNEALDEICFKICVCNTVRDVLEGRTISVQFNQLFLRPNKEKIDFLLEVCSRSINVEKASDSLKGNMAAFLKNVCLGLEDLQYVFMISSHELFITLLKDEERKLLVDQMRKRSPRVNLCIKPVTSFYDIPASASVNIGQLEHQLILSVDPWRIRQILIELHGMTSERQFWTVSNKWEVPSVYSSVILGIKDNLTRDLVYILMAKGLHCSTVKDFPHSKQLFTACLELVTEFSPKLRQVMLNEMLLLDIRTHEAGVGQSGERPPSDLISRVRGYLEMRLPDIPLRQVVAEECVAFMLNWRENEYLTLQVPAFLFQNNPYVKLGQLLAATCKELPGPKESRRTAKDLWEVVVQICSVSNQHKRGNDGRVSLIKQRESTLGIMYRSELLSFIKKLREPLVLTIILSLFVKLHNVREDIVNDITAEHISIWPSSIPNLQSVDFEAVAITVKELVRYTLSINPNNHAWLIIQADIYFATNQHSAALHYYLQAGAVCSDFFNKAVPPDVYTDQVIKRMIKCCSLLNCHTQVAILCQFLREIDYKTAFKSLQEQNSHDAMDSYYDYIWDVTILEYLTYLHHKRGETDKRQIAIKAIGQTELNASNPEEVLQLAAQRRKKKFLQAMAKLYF
UniProt Q9D168: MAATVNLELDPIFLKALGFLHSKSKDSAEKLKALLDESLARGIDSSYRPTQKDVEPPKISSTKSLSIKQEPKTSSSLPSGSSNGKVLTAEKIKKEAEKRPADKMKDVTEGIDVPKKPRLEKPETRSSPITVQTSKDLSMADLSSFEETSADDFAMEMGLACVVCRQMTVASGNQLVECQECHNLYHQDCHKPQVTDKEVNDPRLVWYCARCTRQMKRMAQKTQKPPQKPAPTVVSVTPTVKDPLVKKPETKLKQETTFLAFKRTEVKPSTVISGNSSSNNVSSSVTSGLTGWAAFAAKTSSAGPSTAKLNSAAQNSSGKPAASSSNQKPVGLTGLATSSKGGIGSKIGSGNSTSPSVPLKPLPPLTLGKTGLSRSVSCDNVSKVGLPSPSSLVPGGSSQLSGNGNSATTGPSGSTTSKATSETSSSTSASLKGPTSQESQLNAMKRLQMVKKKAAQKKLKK
UniProt Q9WUD1: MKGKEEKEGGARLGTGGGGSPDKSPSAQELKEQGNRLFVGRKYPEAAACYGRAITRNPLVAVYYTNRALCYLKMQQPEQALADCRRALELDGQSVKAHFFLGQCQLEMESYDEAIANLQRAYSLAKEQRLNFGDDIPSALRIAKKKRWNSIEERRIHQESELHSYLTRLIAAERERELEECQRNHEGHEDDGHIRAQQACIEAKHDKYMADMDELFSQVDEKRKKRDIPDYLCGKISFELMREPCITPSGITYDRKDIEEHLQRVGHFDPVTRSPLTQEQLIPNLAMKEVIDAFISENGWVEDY
UniProt B2RX14: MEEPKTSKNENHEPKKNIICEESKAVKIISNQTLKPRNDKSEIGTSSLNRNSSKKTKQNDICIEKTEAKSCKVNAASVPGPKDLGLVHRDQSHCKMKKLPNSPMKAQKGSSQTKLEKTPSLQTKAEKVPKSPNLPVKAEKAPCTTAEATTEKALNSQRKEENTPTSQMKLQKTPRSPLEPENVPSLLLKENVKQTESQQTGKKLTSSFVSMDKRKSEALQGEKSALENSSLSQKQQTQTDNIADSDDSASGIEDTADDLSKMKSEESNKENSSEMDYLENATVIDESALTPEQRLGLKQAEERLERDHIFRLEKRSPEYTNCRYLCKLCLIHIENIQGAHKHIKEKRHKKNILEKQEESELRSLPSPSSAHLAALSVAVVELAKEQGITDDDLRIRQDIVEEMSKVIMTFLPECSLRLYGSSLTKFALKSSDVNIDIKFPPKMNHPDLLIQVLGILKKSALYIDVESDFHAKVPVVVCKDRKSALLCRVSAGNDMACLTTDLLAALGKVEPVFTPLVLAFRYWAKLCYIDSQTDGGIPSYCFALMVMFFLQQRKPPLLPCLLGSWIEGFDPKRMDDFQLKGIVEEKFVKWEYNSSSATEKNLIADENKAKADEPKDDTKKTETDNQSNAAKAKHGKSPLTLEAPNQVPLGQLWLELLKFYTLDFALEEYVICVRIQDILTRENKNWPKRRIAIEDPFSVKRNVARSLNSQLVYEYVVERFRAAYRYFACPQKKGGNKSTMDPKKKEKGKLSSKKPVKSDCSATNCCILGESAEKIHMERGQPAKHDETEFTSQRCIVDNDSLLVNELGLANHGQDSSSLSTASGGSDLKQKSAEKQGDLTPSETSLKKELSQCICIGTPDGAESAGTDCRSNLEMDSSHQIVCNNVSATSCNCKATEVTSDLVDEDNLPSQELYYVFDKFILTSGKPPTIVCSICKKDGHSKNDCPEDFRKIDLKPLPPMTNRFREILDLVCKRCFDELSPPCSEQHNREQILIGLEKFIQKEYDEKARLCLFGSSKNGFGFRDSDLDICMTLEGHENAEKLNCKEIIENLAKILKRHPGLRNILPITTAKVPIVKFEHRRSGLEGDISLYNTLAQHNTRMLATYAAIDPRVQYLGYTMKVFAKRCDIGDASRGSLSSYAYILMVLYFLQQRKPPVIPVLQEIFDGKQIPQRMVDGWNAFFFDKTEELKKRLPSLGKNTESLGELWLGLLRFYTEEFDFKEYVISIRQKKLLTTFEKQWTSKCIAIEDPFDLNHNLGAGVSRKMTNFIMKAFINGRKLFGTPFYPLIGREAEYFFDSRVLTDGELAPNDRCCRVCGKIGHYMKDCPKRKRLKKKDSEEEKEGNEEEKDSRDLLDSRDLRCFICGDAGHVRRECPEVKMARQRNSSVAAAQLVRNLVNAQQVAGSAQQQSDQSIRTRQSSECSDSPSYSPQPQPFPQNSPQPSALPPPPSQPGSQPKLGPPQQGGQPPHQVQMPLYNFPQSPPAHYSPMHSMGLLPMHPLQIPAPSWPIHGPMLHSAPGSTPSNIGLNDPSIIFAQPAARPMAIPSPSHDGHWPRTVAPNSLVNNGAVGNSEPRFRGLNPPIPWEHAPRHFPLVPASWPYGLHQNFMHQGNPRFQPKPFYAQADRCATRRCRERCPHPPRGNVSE

No constants are given. Whether binding was seen depends on the method and setting. Binding seen in cells or lysates may run through a third protein. A yes stands for co-enrichment or nearness to the bait. Other partners may have been found. Where a sequence is shown, tags or fusion partners need not be part of it.

This assay concerns the target T1, V5-tagged Zfp609 (mouse) (UniProt Q8BZ47).
T1 sequence: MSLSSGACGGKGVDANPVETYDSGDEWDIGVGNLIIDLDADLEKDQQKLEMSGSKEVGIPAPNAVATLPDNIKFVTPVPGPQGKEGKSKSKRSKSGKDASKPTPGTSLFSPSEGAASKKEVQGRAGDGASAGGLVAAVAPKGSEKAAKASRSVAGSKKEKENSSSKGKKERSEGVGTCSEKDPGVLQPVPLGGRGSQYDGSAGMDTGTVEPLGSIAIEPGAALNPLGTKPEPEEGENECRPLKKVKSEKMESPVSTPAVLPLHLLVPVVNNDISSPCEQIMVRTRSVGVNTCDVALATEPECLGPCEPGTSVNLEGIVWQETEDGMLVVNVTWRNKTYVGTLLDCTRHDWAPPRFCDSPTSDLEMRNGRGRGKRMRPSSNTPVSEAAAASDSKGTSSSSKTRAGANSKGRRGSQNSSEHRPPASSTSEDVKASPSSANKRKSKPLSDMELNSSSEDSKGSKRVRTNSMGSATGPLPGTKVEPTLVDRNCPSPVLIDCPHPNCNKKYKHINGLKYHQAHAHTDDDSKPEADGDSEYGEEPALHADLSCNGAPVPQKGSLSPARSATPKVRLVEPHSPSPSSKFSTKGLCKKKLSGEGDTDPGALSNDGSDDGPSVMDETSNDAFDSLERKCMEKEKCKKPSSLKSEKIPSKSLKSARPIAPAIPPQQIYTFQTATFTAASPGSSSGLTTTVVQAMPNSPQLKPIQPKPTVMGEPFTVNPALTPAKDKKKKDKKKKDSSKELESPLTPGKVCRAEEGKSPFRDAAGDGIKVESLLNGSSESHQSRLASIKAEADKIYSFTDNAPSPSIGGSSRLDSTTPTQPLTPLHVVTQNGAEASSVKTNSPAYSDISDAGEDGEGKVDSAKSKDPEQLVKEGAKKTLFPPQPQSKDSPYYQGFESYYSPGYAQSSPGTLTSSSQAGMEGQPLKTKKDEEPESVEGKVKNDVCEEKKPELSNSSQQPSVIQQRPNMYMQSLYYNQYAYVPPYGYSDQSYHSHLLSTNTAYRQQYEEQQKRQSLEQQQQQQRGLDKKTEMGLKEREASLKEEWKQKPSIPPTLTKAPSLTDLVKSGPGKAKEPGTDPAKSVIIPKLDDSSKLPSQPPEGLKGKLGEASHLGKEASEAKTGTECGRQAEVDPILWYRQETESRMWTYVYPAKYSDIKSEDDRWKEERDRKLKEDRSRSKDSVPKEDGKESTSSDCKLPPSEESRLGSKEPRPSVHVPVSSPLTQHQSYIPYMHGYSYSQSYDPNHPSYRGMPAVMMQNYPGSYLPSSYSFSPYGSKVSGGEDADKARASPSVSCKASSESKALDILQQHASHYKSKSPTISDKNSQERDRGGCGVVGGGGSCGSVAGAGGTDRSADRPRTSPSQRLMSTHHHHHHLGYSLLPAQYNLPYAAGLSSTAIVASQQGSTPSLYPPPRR
The assay can be described thus: affinity purification with mass spectrometry; anti-V5 agarose beads on nuclear extract of Zfp609-V5-expressing NSCs, 3 hr at 4°C, 225 U Benzonase, washes in C-100* (100 mM KCl, 0.02% NP-40); NSCs not expressing Zfp609-V5 as control; hits present in two purifications.

Turning to Asun (from UniProt Q8QZV7 1-732), the binding entry was “binds”.
For Cpsf3l (from UniProt Q9CWS4 1-600) the value was “binds”.
For Dnaja2 (from UniProt Q9QYJ0 1-412) the value was “binds”; for Hspa2 (from UniProt P17156 1-633), “binds”; for Ints1 (from UniProt Q6P4S8 1-2195), “binds”.
The value for Ints2 (from UniProt Q80UK8 1-1198) was “binds”; that for Ints3 (from UniProt Q7TPD0 1-1041) was “binds”.
In the case of Ints5 (from UniProt Q8CHT3 1-1018), the binding result is given as “binds”.
As for Ints6 (from UniProt Q6PCM2 1-883), the binding result is “binds”.
In the case of Ints7 (from UniProt Q7TQK1 1-966), the binding result is “binds”.
For Ints8 (from UniProt Q80V86 1-995) the value was “binds”; for Ints9 (from UniProt Q8K114 1-658), “binds”.
Turning to Ints12 (from UniProt Q9D168 1-461), the binding result was “binds”.
The value for Nabp2 (from UniProt Q8R2Y9 1-212) was “binds”; that for Nipbl (from UniProt Q6KCD5 1-2798) was “binds”; that for Setx (from UniProt A2AKX3 1-2646) was “binds”.
The value for Smc3 (from UniProt Q9CW03 1-1217) was “binds”; that for Stub1 (from UniProt Q9WUD1 1-304) was “binds”; that for Vwa9 (from UniProt Q8R3P6 1-515) was “binds”.
On to Zcchc11 (from UniProt B2RX14), for which the binding result is recorded as “binds”.

B1: Maged1 (protein, UniProt Q9QYH6 1-775)
chain: MAQKPDGGAGLRGFQAEASVEDSALLVQTLMEAIQISEAPPTSQATAAASGPNASPQSSQPPTANEKADTEVSAAAARPKTGFKAQNATTKGPNDYSQARNAKEMPKNQSKAAFKSQNGTPKGPHAASDFSQAAPTGKSAKKSEMAFKGQNSTKAGPGTTYNFPQSPSANEMTNNQPKTAKAWNDTTKVPGADAQTQNVNQAKMADVGTSAGISEADGAAAQTSADGSQTQNVESRTIIRGKRTRKVNNLNVEENNSGDQRRASLASGNWRSAPVPVTTQQNPPGAPPNVVWQTPLAWQNPSGWQNQTARQTPPAARQSPPARQTPSAWQNPVAWQNPVIWPNPVIWQNPVIWPNPIVWPGPIVWPNPMAWQSTPGWQSPPSWQAPPSWQSPQDWQGPPDWQVPPDWSMPPDWSFPSDWPFPPDWIPADWPIPPDWQNLRPSPNLRSSSNSRASQNQGPPQPRDVALLQERANKLVKYLMLKDYTKVPIKRSEMLRDIIREYTDVYPEIIERACFVLEKKFGIQLKEIDKEEHLYILISTPESLAGILGTTKDTPKLGLLLVILGIIFMNGNRATEAVLWEALRKMGLRPGVRHPLLGDLRKLLTYEFVKQKYLDYRRVPNSNPPEYEFLWGLRSYHETSKMKVLRFIAEVQKRDPRDWTAQFMEAADEALDALDAAAAEAEARAEARNRMGIGDEAVSGPWSWDDIEFELLTWDEEGDFGDPWSRIPFTFWARYHQNARSRFPQAFTGPIIGPSGTATANFAANFGAIGFFWVE
Turning to B1, the binding entry was “binds”.

B2: Rfx4 (protein, UniProt Q7TNK1 1-735)
chain: MHCGLLEEPDMDSTESWIERCLNESENKRYSSHTSLGNVSNDENEEKENNRASKPHSTPATLQWLEENYEIAEGVCIPRSALYMHYLDFCEKNDTQPVNAASFGKIIRQQFPQLTTRRLGTRGQSKYHYYGIAVKESSQYYDVMYSKKGAAWVSETGKREVTKQTVAYSPRSKLGTLLPDFPNVKDLNLPASLPEEKVSTFIMMYRTHCQRILDTVIRANFDEVQSFLLHFWQGMPPHMLPVLGSSTVVNIVGVCDSILYKAISGVLMPTVLQALPDSLTQVIRKFAKQLDEWLKVALHDLPENLRNIKFELSRRFSQILRRQTSLNHLCQASRTVIHSADITFQMLEDWRNVDLSSITKQTLYTMEDSRDEHRRLIIQLYQEFDHLLEEQSPIESYIEWLDTMVDRCVVKVAAKRQGSLKKVAQQFLLMWSCFGTRVIRDMTLHSAPSFGSFHLIHLMFDDYVLYLLESLHCQERANELMRAMKGEGSTAEAQEEIILTEATPPTPSPGPSFSPAKSATSVEVPPPSSPVSNPSPEYTGLSTAGAMQSYTWSLTYTVTTAAGSPAENSQQLPCMRSTHMPSSSVTHRIPVYSHREEHGYTGSYNYGSYGNQHPHPLQNQYPALPHDTAISGPLHYSPYHRSSAQYPFNSPTSRMEPCLMSSTPRLHPTPVTPRWPEVPTANACYTSPSVHSTRYGNSSDMYTPLTTRRNSEYEHMQHFPGFAYINGEASTGWAK
As for B2, the binding result was “binds”.

B3: Zbtb20 (protein, UniProt Q8K0L9 1-741)
chain: MLERKKPKTAENQKASEENEITQPGGSSAKPALPCLNFEAVLSPAPALIHSTHSLTNSHAHTGSSDCDISCKGMTERIHSINLHNFSNSVLETLNEQRNRGHFCDVTVRIHGSMLRAHRCVLAAGSPFFQDKLLLGYSDIEIPSVVSVQSVQKLIDFMYSGVLRVSQSEALQILTAASILQIKTVIDECTRIVSQNVGDVFPGIQDSGQDTPRGTPESGTSGQSSDTESGYLQSHPQHSVDRIYSALYACSMQNGSGERSFYSGAVVSHHETALGLPRDHHMEDPSWITRIHERSQQMERYLSTTPETTHCRKQPRPVRIQTLVGNIHIKQEMEDDYDYYGQQRVQILERNESEECTEDTDQAEGTESEPKGESFDSGVSSSIGTEPDSVEQQFGAAAPRDGQAEPAQPEQAAEAPAESSAQPNQLEPGASSPERSNESEMDNTVITVSNSSDKGVLQQPSVNTSIGQPLPSTQLYLRQTETLTSNLRMPLTLTSNTQVIGTAGNTYLPALFTTQPAGSGPKPFLFSLPQPLTGQQTQFVTVSQPGLSTFTAQLPAPQPLASSAGHSTASGQGDKKPYECTLCNKTFTAKQNYVKHMFVHTGEKPHQCSICWRSFSLKDYLIKHMVTHTGVRAYQCSICNKRFTQKSSLNVHMRLHRGEKSYECYICKKKFSHKTLLERHVALHSASNGTPPAGTPPGARAGPPGVVACTEGTTYVCSVCPAKFDQIEQFNDHMRMHVSDG
B3: the binding result is given as “binds”.

B4: Akap8l (protein, UniProt Q9R0L7 1-642)
chain: MSYTGFVQGSETTLQSTYCDTSAQPTCDYGYGTWNSGTNRGYENYGYGYGYGQDNTTNYGYGMATSHSWEMASSDTNANPSASGSASADSVLSRINQRLDMMPHLETDMIQGGVYGSGGGERYDSYEACDSRAILSERDLYRSSYDYGELDPEMEMAYEGQYDAYRDQFRMRGGDTFGPRAQGWARDARSGRPMASGYGRMWEDPMGARGQCMPGASRLPSLFSQNIIPEYGMFQGMRGGGAFSGGSRFGFGFGNGMKQMRRTWKTWTTADFRTKKKKRKQGGSPDEPDSKATRTDCSDNSDSDNDEGTEGEAAEGTESAEAMEKGSRVDGEDEEGKEDGREEGKEDPEKGALTAQDESSQAKRKLQASKKSQDKQKKRQRDRMVERIQFVCSLCKYRTFYEDEMGSHLDSKFHKEHFKYVGTKLPKQTADFLQEYVTNKTKKTEELRKTVEDLDGLIQQIYRDQDLTQEIAMEHFVKKVEAAHCAACDLFIPMQFGIIQKHLKTMDHNRNRRLMMEQSKKSSLMVARSILNNKLISKKLERYLKGENPFTDNPEEEKEQDEVEAGALDEGAPSEATELTEGVPAQPPVPLEPAPGTTTPPPPPPPEEEESPVPLLGGALQCQIRGIPGLDMEDDEEGGGGP
B4: the binding entry is reported as “binds”.
